Experimental data as given in the supplement of paper PMC12067093, “Discovery and optimisation of a covalent ligand for TRIM25 and its application to targeted protein ubiquitination” (Chemical Science, 2025).
The list shows a part of the results.

Amino acid sequences for entries named in this document (tags omitted). A change or cut given only in a name is not applied to a line headed by its entry.
UniProt Q02880: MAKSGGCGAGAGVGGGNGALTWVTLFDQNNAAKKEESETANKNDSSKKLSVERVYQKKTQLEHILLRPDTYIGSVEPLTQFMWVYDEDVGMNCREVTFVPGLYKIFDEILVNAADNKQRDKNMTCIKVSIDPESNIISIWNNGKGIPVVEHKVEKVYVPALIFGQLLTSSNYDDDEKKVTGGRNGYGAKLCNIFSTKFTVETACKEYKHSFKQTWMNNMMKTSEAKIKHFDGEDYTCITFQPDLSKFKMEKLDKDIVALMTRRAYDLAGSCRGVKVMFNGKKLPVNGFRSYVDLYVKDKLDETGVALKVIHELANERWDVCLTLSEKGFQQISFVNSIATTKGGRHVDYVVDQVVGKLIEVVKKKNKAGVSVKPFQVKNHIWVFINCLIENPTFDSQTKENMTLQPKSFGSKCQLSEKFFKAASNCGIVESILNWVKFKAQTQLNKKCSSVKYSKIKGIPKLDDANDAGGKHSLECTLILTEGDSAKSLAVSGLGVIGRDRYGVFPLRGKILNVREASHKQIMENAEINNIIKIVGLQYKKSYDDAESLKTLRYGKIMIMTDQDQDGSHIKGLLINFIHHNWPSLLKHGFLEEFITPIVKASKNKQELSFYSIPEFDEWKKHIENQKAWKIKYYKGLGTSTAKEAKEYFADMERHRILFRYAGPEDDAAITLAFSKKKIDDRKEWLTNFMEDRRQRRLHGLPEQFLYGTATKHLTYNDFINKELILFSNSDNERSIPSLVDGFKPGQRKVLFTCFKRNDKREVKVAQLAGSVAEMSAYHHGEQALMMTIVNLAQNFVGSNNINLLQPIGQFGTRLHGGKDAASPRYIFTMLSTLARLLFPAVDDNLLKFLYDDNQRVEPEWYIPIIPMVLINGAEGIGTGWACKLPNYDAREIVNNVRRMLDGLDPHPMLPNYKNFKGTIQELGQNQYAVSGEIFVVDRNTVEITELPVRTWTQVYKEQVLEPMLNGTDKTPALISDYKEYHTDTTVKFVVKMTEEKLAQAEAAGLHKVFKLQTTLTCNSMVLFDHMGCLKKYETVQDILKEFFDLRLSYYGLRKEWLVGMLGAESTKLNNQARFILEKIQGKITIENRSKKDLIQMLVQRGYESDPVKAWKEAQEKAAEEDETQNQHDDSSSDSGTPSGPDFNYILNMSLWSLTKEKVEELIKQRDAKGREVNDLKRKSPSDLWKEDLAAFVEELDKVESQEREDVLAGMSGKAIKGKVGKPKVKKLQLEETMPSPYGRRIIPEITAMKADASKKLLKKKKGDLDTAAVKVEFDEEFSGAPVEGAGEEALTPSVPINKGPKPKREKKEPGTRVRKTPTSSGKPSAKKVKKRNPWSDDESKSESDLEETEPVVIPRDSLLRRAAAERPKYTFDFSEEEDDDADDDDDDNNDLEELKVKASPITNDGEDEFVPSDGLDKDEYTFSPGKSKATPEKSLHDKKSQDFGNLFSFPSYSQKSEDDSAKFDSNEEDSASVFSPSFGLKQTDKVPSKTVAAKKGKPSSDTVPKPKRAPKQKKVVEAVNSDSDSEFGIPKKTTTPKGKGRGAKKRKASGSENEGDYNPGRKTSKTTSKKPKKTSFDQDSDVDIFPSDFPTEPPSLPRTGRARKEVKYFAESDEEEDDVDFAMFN
UniProt Q12888: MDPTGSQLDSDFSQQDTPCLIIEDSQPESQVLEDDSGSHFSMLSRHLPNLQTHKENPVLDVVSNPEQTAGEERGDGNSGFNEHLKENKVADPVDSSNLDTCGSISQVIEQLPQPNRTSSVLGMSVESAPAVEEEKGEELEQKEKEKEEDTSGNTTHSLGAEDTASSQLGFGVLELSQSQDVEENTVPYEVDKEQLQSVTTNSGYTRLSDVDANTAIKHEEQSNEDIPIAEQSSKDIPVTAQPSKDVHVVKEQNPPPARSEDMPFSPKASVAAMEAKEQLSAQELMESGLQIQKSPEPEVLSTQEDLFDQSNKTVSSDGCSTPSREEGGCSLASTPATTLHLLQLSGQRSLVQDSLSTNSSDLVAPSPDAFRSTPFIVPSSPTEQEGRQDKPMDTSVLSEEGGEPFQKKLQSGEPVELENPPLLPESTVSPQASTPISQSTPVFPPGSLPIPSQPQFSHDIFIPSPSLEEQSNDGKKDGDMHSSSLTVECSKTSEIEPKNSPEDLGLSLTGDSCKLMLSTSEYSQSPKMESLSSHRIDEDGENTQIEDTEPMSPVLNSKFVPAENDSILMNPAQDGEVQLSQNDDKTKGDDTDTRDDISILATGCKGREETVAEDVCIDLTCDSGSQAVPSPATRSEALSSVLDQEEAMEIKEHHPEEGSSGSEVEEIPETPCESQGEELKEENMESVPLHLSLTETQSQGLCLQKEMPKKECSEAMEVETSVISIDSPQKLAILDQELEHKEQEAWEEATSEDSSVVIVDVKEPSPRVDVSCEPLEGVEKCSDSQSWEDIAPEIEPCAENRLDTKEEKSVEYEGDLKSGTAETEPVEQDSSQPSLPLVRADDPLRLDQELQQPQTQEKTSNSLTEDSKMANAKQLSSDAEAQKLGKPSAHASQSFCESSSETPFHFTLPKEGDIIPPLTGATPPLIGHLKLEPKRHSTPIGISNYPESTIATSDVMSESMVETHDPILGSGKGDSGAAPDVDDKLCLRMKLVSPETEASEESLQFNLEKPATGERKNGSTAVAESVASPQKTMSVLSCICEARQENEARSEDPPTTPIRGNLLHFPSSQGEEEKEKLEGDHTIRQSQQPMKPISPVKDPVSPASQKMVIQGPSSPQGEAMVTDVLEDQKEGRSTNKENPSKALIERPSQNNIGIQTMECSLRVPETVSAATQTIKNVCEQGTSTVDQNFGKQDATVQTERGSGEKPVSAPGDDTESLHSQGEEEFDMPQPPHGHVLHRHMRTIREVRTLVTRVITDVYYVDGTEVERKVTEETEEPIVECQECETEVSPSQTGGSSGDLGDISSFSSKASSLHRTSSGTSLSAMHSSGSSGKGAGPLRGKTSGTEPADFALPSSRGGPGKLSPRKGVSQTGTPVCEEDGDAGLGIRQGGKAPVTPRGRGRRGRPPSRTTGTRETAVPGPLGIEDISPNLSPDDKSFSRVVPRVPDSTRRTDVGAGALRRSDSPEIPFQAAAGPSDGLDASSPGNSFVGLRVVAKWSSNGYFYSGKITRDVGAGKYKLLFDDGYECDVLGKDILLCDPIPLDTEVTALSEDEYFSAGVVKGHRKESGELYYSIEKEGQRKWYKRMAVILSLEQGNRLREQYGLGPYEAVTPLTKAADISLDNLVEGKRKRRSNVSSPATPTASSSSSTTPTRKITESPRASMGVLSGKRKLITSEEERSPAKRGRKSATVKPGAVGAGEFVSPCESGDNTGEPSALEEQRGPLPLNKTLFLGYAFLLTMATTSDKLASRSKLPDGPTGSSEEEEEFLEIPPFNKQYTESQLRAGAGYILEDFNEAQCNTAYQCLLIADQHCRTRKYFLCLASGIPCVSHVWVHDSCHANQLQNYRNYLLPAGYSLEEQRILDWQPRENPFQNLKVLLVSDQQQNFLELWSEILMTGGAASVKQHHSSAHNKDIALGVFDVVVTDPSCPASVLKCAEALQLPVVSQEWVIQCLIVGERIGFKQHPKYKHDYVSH
UniProt Q9Y490: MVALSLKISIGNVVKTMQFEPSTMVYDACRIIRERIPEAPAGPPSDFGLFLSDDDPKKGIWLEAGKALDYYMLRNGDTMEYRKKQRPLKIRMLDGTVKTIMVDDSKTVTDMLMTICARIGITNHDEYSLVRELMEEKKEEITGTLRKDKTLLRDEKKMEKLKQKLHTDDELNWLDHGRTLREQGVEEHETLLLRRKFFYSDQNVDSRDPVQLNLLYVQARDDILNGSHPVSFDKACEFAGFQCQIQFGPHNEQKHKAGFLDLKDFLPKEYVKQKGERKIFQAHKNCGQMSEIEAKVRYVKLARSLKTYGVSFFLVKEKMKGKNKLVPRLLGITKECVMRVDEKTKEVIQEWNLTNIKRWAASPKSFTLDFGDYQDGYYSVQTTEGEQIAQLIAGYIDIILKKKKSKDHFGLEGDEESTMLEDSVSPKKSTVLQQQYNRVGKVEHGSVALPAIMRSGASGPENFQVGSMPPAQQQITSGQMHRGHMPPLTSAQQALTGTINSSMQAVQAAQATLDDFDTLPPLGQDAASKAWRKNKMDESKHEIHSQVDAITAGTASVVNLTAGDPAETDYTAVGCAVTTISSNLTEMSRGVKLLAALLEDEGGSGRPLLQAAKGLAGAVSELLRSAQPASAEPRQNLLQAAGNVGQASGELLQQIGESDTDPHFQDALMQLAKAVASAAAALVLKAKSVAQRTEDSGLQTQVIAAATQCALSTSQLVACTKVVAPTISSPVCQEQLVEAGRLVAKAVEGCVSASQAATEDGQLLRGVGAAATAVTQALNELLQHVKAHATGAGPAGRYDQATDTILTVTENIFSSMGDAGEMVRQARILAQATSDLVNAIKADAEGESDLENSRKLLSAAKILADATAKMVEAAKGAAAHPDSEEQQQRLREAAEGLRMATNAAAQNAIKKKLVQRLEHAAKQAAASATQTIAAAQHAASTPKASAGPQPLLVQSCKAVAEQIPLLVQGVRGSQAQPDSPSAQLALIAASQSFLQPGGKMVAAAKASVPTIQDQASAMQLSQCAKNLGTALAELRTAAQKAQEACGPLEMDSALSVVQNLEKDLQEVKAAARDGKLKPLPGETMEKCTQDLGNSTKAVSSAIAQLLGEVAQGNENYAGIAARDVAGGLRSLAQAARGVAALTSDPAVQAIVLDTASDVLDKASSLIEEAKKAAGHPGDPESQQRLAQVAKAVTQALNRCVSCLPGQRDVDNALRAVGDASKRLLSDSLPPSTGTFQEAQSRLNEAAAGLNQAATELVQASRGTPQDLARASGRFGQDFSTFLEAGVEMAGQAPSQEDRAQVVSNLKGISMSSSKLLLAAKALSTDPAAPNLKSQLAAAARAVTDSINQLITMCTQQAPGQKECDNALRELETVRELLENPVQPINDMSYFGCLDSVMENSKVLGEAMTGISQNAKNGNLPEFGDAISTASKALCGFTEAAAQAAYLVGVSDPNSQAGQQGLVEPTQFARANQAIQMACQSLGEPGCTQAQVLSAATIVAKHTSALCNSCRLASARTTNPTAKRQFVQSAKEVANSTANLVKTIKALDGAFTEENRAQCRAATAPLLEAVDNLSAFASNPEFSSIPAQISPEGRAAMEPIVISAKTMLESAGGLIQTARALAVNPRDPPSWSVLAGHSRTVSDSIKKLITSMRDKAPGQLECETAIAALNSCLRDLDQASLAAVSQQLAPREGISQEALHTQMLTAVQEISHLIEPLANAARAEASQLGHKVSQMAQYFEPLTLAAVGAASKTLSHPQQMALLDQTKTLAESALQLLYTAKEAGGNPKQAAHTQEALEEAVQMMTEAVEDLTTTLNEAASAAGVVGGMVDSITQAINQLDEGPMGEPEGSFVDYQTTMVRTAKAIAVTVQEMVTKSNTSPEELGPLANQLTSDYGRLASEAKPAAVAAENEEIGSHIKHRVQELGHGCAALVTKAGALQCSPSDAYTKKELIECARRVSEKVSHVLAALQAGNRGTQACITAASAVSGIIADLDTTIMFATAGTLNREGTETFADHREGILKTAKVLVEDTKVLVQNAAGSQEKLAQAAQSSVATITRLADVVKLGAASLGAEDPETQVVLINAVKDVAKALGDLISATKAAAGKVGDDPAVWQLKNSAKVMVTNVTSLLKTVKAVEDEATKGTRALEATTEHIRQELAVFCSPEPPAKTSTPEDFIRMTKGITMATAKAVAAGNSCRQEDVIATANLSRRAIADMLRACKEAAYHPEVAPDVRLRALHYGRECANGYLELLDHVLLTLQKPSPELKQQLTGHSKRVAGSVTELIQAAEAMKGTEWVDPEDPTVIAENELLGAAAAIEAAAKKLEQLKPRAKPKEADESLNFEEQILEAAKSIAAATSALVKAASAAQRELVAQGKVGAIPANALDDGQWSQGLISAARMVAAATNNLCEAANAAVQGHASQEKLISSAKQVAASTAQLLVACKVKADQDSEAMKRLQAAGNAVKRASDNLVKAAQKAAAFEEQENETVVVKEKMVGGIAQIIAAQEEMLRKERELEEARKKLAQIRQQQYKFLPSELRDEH
UniProt Q9NV96: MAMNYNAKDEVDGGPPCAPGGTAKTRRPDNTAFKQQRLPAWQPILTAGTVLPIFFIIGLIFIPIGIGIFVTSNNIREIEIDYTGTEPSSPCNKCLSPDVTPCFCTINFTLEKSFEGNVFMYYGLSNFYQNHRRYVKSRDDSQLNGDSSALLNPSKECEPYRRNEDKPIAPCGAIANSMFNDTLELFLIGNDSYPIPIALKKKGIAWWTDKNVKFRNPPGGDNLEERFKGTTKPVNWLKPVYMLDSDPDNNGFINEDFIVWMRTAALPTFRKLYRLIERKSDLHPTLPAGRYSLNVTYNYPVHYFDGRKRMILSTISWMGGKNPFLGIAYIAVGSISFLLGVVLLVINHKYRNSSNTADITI

Compound: Cc1cc(ccc1-c1ccccc1)C(=O)N1CCCN(CC1)C(=O)CCl [compound 10]
Assay: probe-labelled cysteine peptide fold change vs DMSO (competition) (log2 fold change); higher = less target engagement (more negative = stronger competition)
Conditions: THP-1, incubation time: 4 h
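Note: competitive profiling in live THP-1 cells: cysteine peptides tagged with an iodoacetamide desthiobiotin (IA-DTB) probe, intensity after compound treatment relative to DMSO-treated cells.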

Row | Target | probe-labelled cysteine peptide fold change (10 µM) | probe-labelled cysteine peptide fold change (50 µM)
1 | TOP2B_Q02880_271_AYDLAGSCR (UniProt Q02880) | 0.106 | 0.268
2 | TNFAIP2_Q03169_45_GLANVFCVFTK (UniProt Q03169) | -0.456 | -0.234
3 | TLN2_Q9Y4G6_1110_AVGSSMAQLLTCAAQGNEHYTGVAAR (UniProt Q9Y4G6) | -0.0473 | 0.0206
4 | TOMM70_O94826_427_ILLDQVEEAVADFDECIR (UniProt O94826) | -0.289 | 0.369
5 | TMEM173_Q86WV6_12_PHSSLHPSIPCPR (UniProt Q86WV6) | 0.0393 | -0.625
6 | TOP3B_O95985_442_IGPELFTCSGK (UniProt O95985) | 0.16 | -0.0212
7 | TPMT_P51580_70_VFFPLCGK (UniProt P51580) | 0.00228 | 0.118
8 | TOPBP1_Q92547_60_SLYICDPFSGVVFDHLKK (UniProt Q92547) | 0.122 | -0.237
9 | TMEM161A_Q9NX61_33_WLLCNGSLFR (UniProt Q9NX61) | -0.213 | -0.345
10 | TP53BP1_Q12888_1926_DIALGVFDVVVTDPSCPASVLK (UniProt Q12888) | 0.0589 | -0.0545
11 | TOPBP1_Q92547_1485_TEYIADYLMQESPPHVENYCLPEAISFIQNNK (UniProt Q92547) | 0.0478 | 0.309
12 | TPI1_P60174_164_VAHALAEGLGVIACIGEK (UniProt P60174) | 0.0839 | 0.00853
13 | TOR3A_Q9H497_193_DGLMSDCVR (UniProt Q9H497) | -0.16 | 0.174
14 | TONSL_Q96HA7_30_REEAALCHQLGELLAGHGR (UniProt Q96HA7) | 0.16 | 0.0923
15 | TNFAIP8L3_Q5GJ75_272_INHVFNHFADVEFLSTLYSLDGDCRPNLK (UniProt Q5GJ75) | 0.0517 | 0.151
16 | TOP1_P11387_386_IMPEDIIINCSK (UniProt P11387) | -0.14 | -0.0606
17 | TONSL_Q96HA7_66_ERADDPLGCAVAHR (UniProt Q96HA7) | 0.224 | -0.301
18 | TP53BP1_Q12888_101_VADPVDSSNLDTCGSISQVIEQLPQPNR (UniProt Q12888) | 0.0981 | -0.16
19 | TLN1_Q9Y490_29_TMQFEPSTMVYDACR (UniProt Q9Y490) | 0.0337 | -0.0224
20 | TLN1_Q9Y490_236+243_ACEFAGFQCQIQFGPHNEQK (UniProt Q9Y490) | -0.12 | -0.0867
21 | TMEM214_Q6NUQ4_222_ICIQAILQDKPK (UniProt Q6NUQ4) | 0.0665 | 0.396

Row | Target | probe-labelled cysteine peptide fold change (10 µM) | probe-labelled cysteine peptide fold change (50 µM)
22 | TMED3_Q9Y3Q3_101_GVYQFCFSNEFSTFSHK (UniProt Q9Y3Q3) | 0.263 | 0.378
23 | TOP1_P11387_386_RIMPEDIIINCSK (UniProt P11387) | -0.0755 | -0.0685
24 | TOE1_Q96GM8_89_AVCHAAR (UniProt Q96GM8) | 0.049 | 0.191
25 | TOE1_Q96GM8_371_KQVCGDSIKPEETEQEVAADETR (UniProt Q96GM8) | -0.0655 | -0.661
26 | TM9SF3_Q9HD45_108_DDVMPATYCEIDLDK (UniProt Q9HD45) | 0.424 | 0.752
27 | TOP2B_Q02880-2_7_SGGCGAGAGVGGGNGALTWVNNAAK (UniProt Q02880) | -0.14 | -0.316
28 | TPI1_P60174_164_VAHALAEGLGVIACIGEKLDEREAGITEK (UniProt P60174) | 0.0228 | -0.204
29 | TM2D3_Q9BRN9_166_DHVHCLGNR (UniProt Q9BRN9) | -0.374 | -0.241
30 | TMEM63B_Q5T3F8_267_HFEEAYPNCTVLEAR (UniProt Q5T3F8) | 0.107 | 0.231
31 | TNS3_Q68CZ2_615_CPADNPGLVQAQPR (UniProt Q68CZ2) | -0.159 | -0.576
32 | TOP2A_P11388_997+1008_LQTSLTCNSMVLFDHVGCLK (UniProt P11388) | -0.0908 | 0.219
33 | TMEM30A_Q9NV96_157_ECEPYR (UniProt Q9NV96) | 0.0986 | 0.428
34 | TOP2A_P11388_733_KVLFTCFK (UniProt P11388) | -0.123 | -0.721
35 | TOMM70_O94826_588_SEMEMAHLYSLCDAAHAQTEVAKK (UniProt O94826) | -0.0371 | -0.208
36 | TMEM30A_Q9NV96_17_AMNYNAKDEVDGGPPCAPGGTAK (UniProt Q9NV96) | -0.185 | -0.815
37 | TNPO2_O14787_789_LGYVCPQEVAPMLQQFIR (UniProt O14787) | -0.0982 | 0.226
38 | TOB2_Q14106_120_VLYLDDSEGCGAPELDK (UniProt Q14106) | -0.293 | 0.037
39 | TONSL_Q96HA7_537_ACIEGQLR (UniProt Q96HA7) | 0.00849 | -0.719
40 | TOR1AIP2_Q9H496_86_ACHPFLLGPPLVR (UniProt Q9H496) | 0.255 | 0.243
41 | TOPBP1_Q92547_1200_QAVCDPGNIR (UniProt Q92547) | -0.256 | -0.116
